# Experimental data from paper PMC4741518, “Adaptive Remodeling of the Bacterial Proteome by Specific Ribosomal Modification Regulates Pseudomonas Infection and Niche Colonisation” (PLoS Genetics, 2016).
# No constants are given. Whether binding was seen depends on the method and setting. In cells and extracts the contact can be indirect. Here binding means that the protein was enriched with, or labelled near, the bait; the list need not be complete.
# B1: UPF0229 protein PFLU5583 (protein, UniProt C3K332 1-423)
# chain: MSYVIDRRLNGKNKSTVNRQRFLRRYRDHIKKAVEEAVSRRSITDMEHGEQISIPGRDIDEPVLHHGRGGKQTVVHPGNKEFTTGEHIQRPQGGGGGKGPGKAGNSGEGMDEFVFQITQEEFLEFMFEDLELPNLVKRNLTGTDTFKTVRAGISNEGNPSRINIIRTLRSAHARRIALSGSSRAKLRDAKEELARLKREEPDNFGDIQEIEAEIEKLSARIHRVPFLDTFDLKYNLLVKQPNPSSKAVMFCLMDVSGSMTQATKDIAKRFFILLYLFLKRNYDKIDVVFIRHHTSAREVDEEEFFYSRETGGTIVSSALKLMQEIMAERYPANEWNIYAAQASDGDNWNDDSPICRDILINQIMPFVQYYTYVEITPREHQALWFEYERIGEAFADTFAQQQLVSAGDIYPVFRELFQRRLVT
# Assays:
# [1] = target: Ribosomal protein S6 modification protein RimK (P. fluorescens SBW25); experiment: affinity purification with mass spectrometry; C-terminally flag-tagged RimA, RimB or RimK expressed from pME6032 plasmids in P. fluorescens SBW25; lysate in IP buffer (20 mM HEPES pH 7.4, 100 mM NaCl, 1 mM EDTA, 1.0% Triton X-100, protease inhibitor), pre-cleared with protein-A agarose, ANTI-FLAG M2 affinity gel overnight at 4°C, 5 washes; interacting proteins detected by Orbitrap mass spectrometry; controls: M2 beads only and unrelated flag-tagged proteins (PFLU3129 and PFLU3130)
# [2] = target: Conserved EAL domain protein RimA (P. fluorescens SBW25); experiment: as above
binder,measurement,setting,value
B1,binding,[1],binds
same,binding,[2],binds
